Assay results as given in US20170022269A1.
Changes are numbered by the printed parent chain. No constants are given. Whether binding was seen depends on the method and setting. Some binding calls cover weakened binding; strength is not graded here.

B1: monoclonal antibody 5F7 (antibody, V domains shown)
VH: QVQLKQSGAELVRPGTSVKMSCKASGYTFTTFYIHWVKQRPGQGLEWIGMIGPGSGNTYYNEMFKDKATLTVDTSSSTAYMQLSSLTSEDSAVYFCARAKSARAAWFAYWGQGTLVTVSA
VL: DVLMTQTPLSLPVSLGDQASISCRSSQSVVQSNGNTYLEWYLQKPGQSPKLLIYKVSNRFSGVPDRFSGSGSGTDFTLKISRVEAEDLGVYYCFQGSHVPPTFGGGTKLEIKR
B2: monoclonal antibody 2F2 (antibody, V domains shown)
VH: B1 VH
VL: B1 VL
B3: monoclonal antibody 7C6 (antibody, V domains shown)
VH: EVKLVESGGGLVKPGGSLKLSCAASGFTFSSYAMSWVRQTPAKRLEWVASIHNRGTIFYLDSVKGRFTISRDNVRNTLYLQMSSLRSEDTAIYYCTRGRSNSYAMDYWGQGTSVTVSS
VL: DVLVTQSPLSLPVRLGDQASISCRSTQTLVHRNGDTYLEWYLQKPGQSPKSLIYKVSNRFSGVPDRFSGSGSGTDFTLKISRVEAEDLGVYYCFQGSHVPYTFGGGTKLEIKR
B4: monoclonal antibody 4B7 (antibody, V domains shown)
VH: EVKLVESGGGLVQPGGSRKLSCAASGFTFSDYEMVWVRQAPGEGLEWVAYISSGSRTIHYADTVKGRFTISRDNPKNTLFLQMSSLRSEDTAMYYCARTLLRLHFDYWGQGTILTVSS
VL: DIVMSQSPSSLAVSVGEKVTMSCRSSQSLFYRSNQKNFLAWYQQKPGQSPKLLIYWASTRESGVPDRFTGSGSGTDFTLTISSVKAEDLAVYYCQQYYSYPWTFGGGTKLEIKR
B5: monoclonal antibody 7E5 (antibody, V domains shown)
VH: B4 VH
VL: B4 VL
B6: monoclonal antibody 10C1 (antibody, V domains shown)
VH: B4 VH with E43K, S52N, R56G
VL: B4 VL with R24K, R32S, S33R, R60G, Y98F

Legend:
[1] = biological target: T1, Aβ(20-42) globulomer (human); test: dot blot, antibody 0.2 µg/ml
T1 sequence (peptide): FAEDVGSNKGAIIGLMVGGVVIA

[2] = biological target: T1, Aβ(20-42) globulomer (human); test: dot blot on nitrocellulose, antibody 0.2 µg/ml

| Binder | binding [1] | binding [2] |
| --- | --- | --- |
| B1 | binds | binds |
| B2 | binds | binds |
| B3 | binds | binds |
| B4 | binds | binds |
| B5 | binds | binds |
| B6 | binds | binds |
